Experimental data from patent publication US8143212B2 (Vicuron Pharmaceuticals Inc., priority 2002, dated 2012).
Some of these results come from one statement about several compounds together.

Assay: Metabolite profile in plasma and urine
Assay type: in vivo
Details: human plasma

CN[C@H]1C(=O)N[C@@H]2Cc3ccc(cc3)Oc3cc4cc(c3O)Oc3ccc(cc3Cl)[C@@H](O)[C@@H]3NC(=O)[C@H](NC(=O)[C@@H]4NC(=O)[C@@H](NC2=O)c2cc(cc(O)c2Cl)Oc2cc1ccc2O)c1ccc(O)c(c1)-c1c(O[C@H]2O[C@H](CO)[C@@H](O)[C@H](O)[C@@H]2O)cc(O)cc1[C@@H](C(=O)NCCCN(C)C)NC3=O [MAG]
metabolite level (undetectable or close to the limit of detection): < 0.4 mg/L
